According to PubChem BioAssay AID1347423 (Functional Genomics Laboratory (NCATS/FGL), 2020):
Among all 52,000 sequences or so, about 210 (0.4%) were called active.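 How the source made its calls: active means gene whose silencing raises cell survival under the drug, median off-target-corrected z-score across its silencing RNAs 2 or more; inactive means the rest.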 The list shows a part of the results.

experiment: Resistance to Poly (ADP-Ribose) Polymerase inhibitor: Gene Identification via Genome-wide siRNA Screen; conditions: mouse BRCA2 R2336H ES cells, olaparib, CellTiter-Glo viability; hits give high values
Summary of the method: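 Mouse BRCA2 R2336H ES cells were reverse-transfected with siRNA (20 nM final), treated at 48 h with 500 nM olaparib, and read by CellTiter-Glo after 72 h. Scores: MAD-based z per siRNA, median per gene, seed off-target correction.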

| Sequence | z-score |
| --- | --- |
| GCAUUUAACAAAGAUUUGGTT against 2810441O16Rik | inactive: -0.268 |
| CCAAAAGCAUAUCAGUCGGTT against Olfr1122 | inactive: -0.398 |
| GCUACAAUGACGCAGAGACTT against Kif5a | inactive: 0.344 |
| GGUUUUGGACCAGAUGAGCTT against Abi3 | inactive: 1.71 |
| GGAUAACAACGACAUUUCATT against Col6a1 | inactive: -0.615 |
| GAGAUGGAGCCUGGAAACUTT against Olfr480 | inactive: -2.16 |
| GGCUCAAGGCUGAGUUUCATT against En2 | inactive: 0.178 |
| GCCACUCACCUAGCAAAGATT against 2410025L10Rik | inactive: -0.431 |
| GCAAUCACUCUGCAGUGUCTT against Olfr1042 | inactive: 0.887 |
| GCAAACAUACGAUGUGAGGTT against 1700019N19Rik | inactive: 0.97 |
| GUCAAGAAUAUUAUGACCCTT against Vamp8 | inactive: 0.361 |
| GGUUUGUGACCAAUAAAACTT against Elk3 | inactive: -0.35 |
| GGAUUUCGACAGCAAACUCTT against Efhd2 | inactive: 1.71 |
| GGCCUUAAAAGGAAAACUATT against Sftpd | inactive: 0.542 |
| CGGCUUUCAAUCACAACGGTT against 9530020G05Rik | inactive: 0.912 |
| GGACAAGUACAGGUUCCUATT against Vrk3 | inactive: -1.3 |
| GCUAAUAGUCAUUAAACUGTT against Zfp2 | inactive: -0.337 |
| GGUCCAGAUAGACAUCCUGTT against Ralb | inactive: -0.682 |
| CGUAGUGAUCCUGUUCCAGTT against Lisch7 | inactive: -1.11 |
| GGUAGUUUAAAAUCUGUGATT against St6gal1 | inactive: 0.65 |
| GGGCCGAAAUGAAUGAACUTT against Inhba | inactive: -0.00136 |
| GGAAGAGACACUUUGUCUATT against 4930519G04Rik | inactive: -0.08 |
| GGUGCAGCCACGAAAACAUTT against Lmln | inactive: 1.57 |
| GGACCAACACACAACAUCCTT against 2310067G05Rik | inactive: 0.237 |
| GGGAUAUUCAUUGACUUUGTT against Arhgap8 | inactive: -1.64 |
| CCAAGUCCAGCCUUUUGGUTT against Bucs1 | inactive: 0.574 |
| CGACUAGAGUUGUGUGAUATT against Uqcrh | inactive: 0.614 |
| GGAUAAGGUAGAAUUACUGTT against Slc26a4 | inactive: -1.34 |
| GGAUGAUUCAUUCAGUGAUTT against Adcy9 | inactive: 0.0186 |

Single entries from the list.
z-score, CGUAGUGAUCCUGUUCCAGTT against Lisch7 reads inactive: -1.11
z-score, GGACCAACACACAACAUCCTT against 2310067G05Rik reads inactive: 0.237
